Values from PubChem BioAssay AID1259254 (NCATS, 2017)

Aim: 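Gene knock-downs that lead to re-replication, shown by excess G2 DNA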 (primary screen)
System: human HCT116 colorectal cancer cells
Knock-down reagent: single siRNA against human genes
Time to read-out: 3 days
Detection: 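Nuclei stained with Hoechst and imaged; cell-cycle phase assigned by DNA content; G2 share scaled per plate, non-targeting siRNA 0%, GMNN siRNA 100%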
Reading the numbers: G2 robust z-score and G2 cells, % of GMNN control: higher = more G2 cells, more excess DNA replication; raw share of cells in G2: higher = larger share of cells with G2 DNA content
Active means: 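Active siRNAs have a G2 robust z of 5 or more median absolute deviations over the median, which in these data means about 38% or higher of GMNN control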
The whole screen tested about 59,000 reagents; this is a part drawn at random. About 1,550 of all reagents (2.6%) count as active. 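G2 share is only a proxy for re-replication; each gene was hit by three separate siRNAs, and active genes were retested.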 The raw values are shown without normalisation. Unmarked entries are inactive. The numbers tell different reagents against one gene apart. Not stated in the record: the amount of reagent.

The first 3 records, to show the layout:
| target gene | reagent no. | G2 robust z-score | G2 cells, % of GMNN control | raw share of cells in G2 (%) |
| --- | --- | --- | --- | --- |
| HNRNPU | 1 | 1.01 | 10 | 7.88 |
| HNRNPU | 2 | 4.22 | 32.7 | 18.1 |
| HNRNPU | 3 | 4.94 | 37.7 | 18.7 |

The list itself, repeating the preview:
| target gene | reagent no. | G2 robust z-score | G2 cells, % of GMNN control | raw share of cells in G2 (%) |
| --- | --- | --- | --- | --- |
| HNRNPU | 1 | 1.01 | 10 | 7.88 |
| HNRNPU | 2 | 4.22 | 32.7 | 18.1 |
| HNRNPU | 3 | 4.94 | 37.7 | 18.7 |
| POLN | 1 | 6.57 (active) | 49.2 | 27.2 |
| POLN | 2 | 0.362 | 5.51 | 7.11 |
| POLN | 3 | 1.71 | 15 | 9.76 |
| WDR46 | 1 | 1.08 | 10.6 | 8.97 |
| WDR46 | 2 | 1.95 | 16.7 | 12.1 |
| WDR46 | 3 | 3.64 | 28.6 | 14.9 |
| PCDHGA2 | 1 | 1.8 | 15.6 | 10.8 |
| PCDHGA2 | 2 | -0.816 | -2.78 | 3.44 |
| PCDHGA2 | 3 | -0.592 | -1.2 | 5.91 |
| KLRD1 | 1 | -1.04 | -4.38 | 3.45 |
| KLRD1 | 2 | -0.377 | 0.316 | 4.32 |
| KLRD1 | 3 | -0.376 | 0.325 | 5.81 |
| IP6K1 | 1 | 0.236 | 4.63 | 7.03 |
| IP6K1 | 2 | -1.41 | -6.97 | 2.66 |
| IP6K1 | 3 | -1.05 | -4.43 | 2.26 |
| JAKMIP2 | 1 | 1.39 | 12.7 | 11.1 |
| JAKMIP2 | 2 | -0.284 | 0.971 | 4.35 |
| JAKMIP2 | 3 | 3.5 | 27.6 | 13.5 |
| POFUT3 | 1 | 1.93 | 16.6 | 10.9 |
| POFUT3 | 2 | 0.0771 | 3.51 | 5.46 |
| POFUT3 | 3 | 1.24 | 11.7 | 10.3 |
| OR10A3 | 1 | -0.989 | -3.99 | 2.91 |
| OR10A3 | 2 | 0.329 | 5.28 | 6.23 |
| OR10A3 | 3 | -0.372 | 0.351 | 3.42 |
| AIP | 1 | -0.0724 | 2.46 | 4.34 |
| AIP | 2 | -1.03 | -4.27 | 4.09 |
| AIP | 3 | -0.717 | -2.07 | 2.47 |
| KRABD1 | 1 | 1.71 | 15 | 10.1 |
| KRABD1 | 2 | 0.458 | 6.19 | 6.62 |
| KRABD1 | 3 | -0.446 | -0.168 | 3.24 |
| CAVIN4 | 1 | -0.941 | -3.66 | 2.73 |
| CAVIN4 | 2 | 3.23 | 25.7 | 14.5 |
| CAVIN4 | 3 | 2.25 | 18.8 | 11.7 |
| CIART | 1 | 0.312 | 5.16 | 5.56 |
| CIART | 2 | -0.364 | 0.405 | 3.04 |
| CIART | 3 | -0.328 | 0.658 | 3.3 |
| PPP1R14B | 1 | 1.27 | 11.9 | 7.89 |
| PPP1R14B | 2 | 5.06 (active) | 38.6 | 15.1 |
| PPP1R14B | 3 | -0.65 | -1.6 | 4.27 |
| CRH | 1 | -0.941 | -3.66 | 2.84 |
| CRH | 2 | 0.259 | 4.79 | 6.67 |
| CRH | 3 | 7.04 (active) | 52.5 | 24.2 |
| TADA2B | 1 | 0.992 | 9.95 | 8.24 |
| TADA2B | 2 | -0.507 | -0.597 | 5.39 |
| TADA2B | 3 | -0.516 | -0.665 | 4.68 |
